PubChem BioAssay AID720505 – Drosophila RNAi Screening Center | 2013
Purpose: 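Genes needed for store-operated calcium entry in fly cells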 (primary screen). Cell system: Drosophila S2R+ cells. Reagents: long dsRNA against Drosophila genes. Treatment: thapsigargin (2 µM) in calcium-free buffer to empty internal stores, then 2 mM calcium added back. Detection: 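Stores emptied by 2 µM thapsigargin without calcium, then 2 mM calcium re-added; fluo-4 fluorescence followed by FLIPR in 384-well plates, per-well averaged endpoint, raw; two screen passes, some wells retested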. Reading the numbers: calcium signal: higher = more calcium entry after store depletion. Call rule: 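Knock-downs counted as hits when calcium entry dropped relative to STIM1 positive and Rho1 negative controls present on each plate; roughly 1500 genes called, with reductions of differing size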. Meaning of the calls: active = called as lowering calcium entry; inactive = not called.
The deposit covers about 20,000 reagents; shown is an unselected part of those with a known target gene and a result. Over the whole deposit, about 2,100 (10%) were called active. 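Raw plate signals without normalisation; calls rest on control-based scores that were not deposited; replicate 2 separates called from uncalled poorly.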 A number with no mark means an inactive call. Not given: the amount of reagent, the time to read-out.

CG18180 [DRSC10304] — calcium signal, replicate 1: 132; calcium signal, replicate 2: 89.2
CG10376 [DRSC02049] — calcium signal, replicate 1: 110; calcium signal, replicate 2: 86.7
PIG-U (Phosphatidylinositol glycan anchor biosynthesis class U) [DRSC02193] — calcium signal, replicate 1: 107; calcium signal, replicate 2: 93.9
Anp (Andropin) [DRSC14112] — calcium signal, replicate 1: 98.9; calcium signal, replicate 2: 90.3
Ppt1 (Palmitoyl-protein thioesterase 1) [DRSC17806] — calcium signal, replicate 1: 281; calcium signal, replicate 2: 103
SP2353 [DRSC07545] — calcium signal, replicate 1: 109; calcium signal, replicate 2: 153

A run of entries of the results above, as a working copy:
Anp (Andropin) [DRSC14112] — calcium signal, replicate 1: 98.9; calcium signal, replicate 2: 90.3
Ppt1 (Palmitoyl-protein thioesterase 1) [DRSC17806] — calcium signal, replicate 1: 281; calcium signal, replicate 2: 103

More records follow:
CG8736 [DRSC07255] — calcium signal, replicate 1: 125; calcium signal, replicate 2: 161
IntS14 (Integrator 14) [DRSC00668] — calcium signal, replicate 1: 129; calcium signal, replicate 2: 181
Idgf4 (Imaginal disc growth factor 4) [DRSC18675] — calcium signal, replicate 1: 151; calcium signal, replicate 2: 131
Jheh3 (Juvenile hormone epoxide hydrolase 3) [DRSC06533] — calcium signal, replicate 1: 119; calcium signal, replicate 2: 133
CG11099 [DRSC06034] — calcium signal, replicate 1: 143; calcium signal, replicate 2: 155
CG33521 [DRSC17211] — calcium signal, replicate 1: 126; calcium signal, replicate 2: 159
CG33521 [DRSC22919] — calcium signal, replicate 1: 127; calcium signal, replicate 2: 183
